Data published in patent publication EP3375888A1, “A METHOD FOR PREDICTING THE RESPONSIVENESS OF A PATIENT TO A TREATMENT WITH MTOR INHBITORS” (INSERM (Institut National de la Santé et de la Recherche …, priority 2017, dated 2018).
At least one structure is not confirmed: it was looked up by name or label, or the drawing left a doubt.

Test system: Eµ-Myc-GAPDHlow cells
Assay: OxPhos and glycolytic ATP production as percentage of total ATP
Type: cell-based, mouse
Conditions: two independent Eµ-Myc-GAPDHlow clones (#F and #J), 10 nM and 20 nM Rapamycin, 24 hours

For `CO[C@H]1C[C@@H]2CC[C@@H](C)[C@@](O)(O2)C(=O)C(=O)N2CCCC[C@H]2C(=O)O[C@H]([C@H](C)C[C@@H]2CC[C@@H](O)[C@H](OC)C2)CC(=O)[C@H](C)/C=C(\C)[C@@H](O)[C@@H](OC)C(=O)[C@H](C)C[C@H](C)/C=C/C=C/C=C/1C` [rapamycin], the “metabolic status (OxPhos and glycolytic ATP production)” value was “induces a metabolic shift from OxPhos to glycolysis”.
